HELM strings list residues between dots; [ac] is acetyl, [am] amide, other brackets name non-standard units.
Experiment: peptide made by a vendor
Conditions: whole synthesis, amino acid analysis and mass spectrometry

**Q.** Which “final purity (method not given)” value does the source give for “PEPTIDE1{V.C.H.S.K.T.R.S.N.P.E.N.N.V.G.L}$$$$V2.0” here?
**A.** about 97%
